Measurements published in US20250195658A1 (ST JUDE CHILDREN S RESEARCH HOSPITAL, published 2025).
These are yes or no findings as the source states them, for the method shown. Some results given as binding are weak or reduced against the parent protein; the word gives no strength. Each block holds one binder with its values, some of them ahead of it.

Molecular target: T1, Recombinant Human IL3RA protein conjugated to APC (Creative BioMart, CAT #IL3RA-3248HA) (human) (UniProt P26951)
T1 sequence (conjugated to APC, looked up): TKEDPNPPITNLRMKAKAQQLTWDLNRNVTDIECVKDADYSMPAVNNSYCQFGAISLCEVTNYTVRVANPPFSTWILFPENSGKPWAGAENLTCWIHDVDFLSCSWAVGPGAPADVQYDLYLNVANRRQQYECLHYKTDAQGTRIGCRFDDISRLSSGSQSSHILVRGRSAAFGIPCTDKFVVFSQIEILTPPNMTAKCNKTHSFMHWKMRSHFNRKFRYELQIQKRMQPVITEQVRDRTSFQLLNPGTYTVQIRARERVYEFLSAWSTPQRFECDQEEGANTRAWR
Assay: flow cytometry, recombinant CD123 protein binding to CAR T cells

binding: binds
B1: GRP78-G4S3-CD123-CAR (other)
chain: CTVALPGGYVRVCEFGGGGSGGGGSGGGGSAAAQVQLQQPGAELVRPGASVKLSCKASGYTFTSYWMNWVKQRPDQGLEWIGRIDPYDSETHYNQKFKDKAILTVDKSSSTAYMQLSSLTSEDSAVYYCARGNWDDYWGQGTTLTVSSGGGGSGGGGSGGGGSDVQITQSPSYLAASPGETITINCRASKSISKDLAWYQEKPGKTNKLLIYSGSTLQSGIPSRFSGSGSGTDFTLTISSLEPEDFAMYYCQQHNKYPYTFGGGTKLEIKSIEVMYPPPYLDNEKSNGTIIHVKGKHLCPSPLFPGPSKPFWVLVVVGGVLACYSLLVTVAFIIFWVRSKRSRLLHSDYMNMTPRRPGPTRKHYQPYAPPRDFAAYRSRVKFSRSADAPAYQQGQNQLYNELNLGRREEYDVLDKRRGRDPEMGGKPRRKNPQEGLYNELQKDKMAEAYSEIGMKGERRRGKGHDGLYQGLSTATKDTYDALHMQALPPR
notes: Residues from 510 on (spacer RSGVDSG, T2A, tCD19) are also left out; also called 78.(G4S)3.123; G4S2

binding: binds
B2: GRP78-GPcPcPc-CD123-CAR (other)
chain: CTVALPGGYVRVCEFAGSGGSGGSGGSPVPSTPPTNSSSTPPTPSPSPVPSTPPTNSSSTPPTPSPSPVPSTPPTNSSSTPPTPSPSASAAAQVQLQQPGAELVRPGASVKLSCKASGYTFTSYWMNWVKQRPDQGLEWIGRIDPYDSETHYNQKFKDKAILTVDKSSSTAYMQLSSLTSEDSAVYYCARGNWDDYWGQGTTLTVSSGGGGSGGGGSGGGGSDVQITQSPSYLAASPGETITINCRASKSISKDLAWYQEKPGKTNKLLIYSGSTLQSGIPSRFSGSGSGTDFTLTISSLEPEDFAMYYCQQHNKYPYTFGGGTKLEIKSIEVMYPPPYLDNEKSNGTIIHVKGKHLCPSPLFPGPSKPFWVLVVVGGVLACYSLLVTVAFIIFWVRSKRSRLLHSDYMNMTPRRPGPTRKHYQPYAPPRDFAAYRSRVKFSRSADAPAYQQGQNQLYNELNLGRREEYDVLDKRRGRDPEMGGKPRRKNPQEGLYNELQKDKMAEAYSEIGMKGERRRGKGHDGLYQGLSTATKDTYDALHMQALPPR
